Experimental findings from publication PMC5996148 are described below.

Several values for one entry are separate records, joined by “and”; a condition that tells them apart may be missing. Equal values may be shown once. The list shows a part of the results. For some assays here: The exact form of the protein is not confirmed.

Some test systems named below: C10orf35 (human); C10orf46 (human); C11orf51 (human); C11orf53 (human); C11orf70 (human); C11orf74 (human); C12orf10 (human); C12orf41 (human); C12orf48 (human); C14orf100 (human); C14orf119 (human); C14orf122 (human); C14orf130 (human); C14orf131 (human); C14orf159 (human).
What all share (experiment): protein microarray (ProtoArray v5.0), streptavidin-Alexa Fluor 647
Holding throughout (conditions): 3'-biotin; 20 mM Tris (pH 7.5), 5 mM MgCl2, 100 mM KCl, 0.1% Tween-20, A/T-rich and random oligonucleotide blockers; temperature not stated; high values mean tight binding

The subject of experiment [1] is C-terminal-binding protein 1 (human).
The subject of experiment [2] is C-type lectin domain family 12 member A (human).
Experiment [3] concerns C-type lectin domain family 2 member D (human).
Another experiment concerns the target T1, C10orf58 (UniProt Q9BRX8).
T1 sequence: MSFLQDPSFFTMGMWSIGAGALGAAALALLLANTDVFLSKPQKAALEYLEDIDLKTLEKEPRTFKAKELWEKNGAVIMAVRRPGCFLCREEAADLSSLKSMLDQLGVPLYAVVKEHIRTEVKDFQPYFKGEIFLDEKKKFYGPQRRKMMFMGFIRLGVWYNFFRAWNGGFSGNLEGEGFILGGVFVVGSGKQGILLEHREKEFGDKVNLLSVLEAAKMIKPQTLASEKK

The target in another experiment is T2, C11orf52 (UniProt Q96A22).
T2 sequence: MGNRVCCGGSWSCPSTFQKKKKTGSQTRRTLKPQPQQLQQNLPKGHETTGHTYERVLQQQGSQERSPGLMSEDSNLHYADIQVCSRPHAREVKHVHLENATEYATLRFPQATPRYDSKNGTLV

In the case of “GGTGACAGGGGTATGGGGAGGGG [G4-2 biotinylated (Ct1)]”, the binding signal is -0.403 z-score in experiment [1]; -0.392 z-score in [2]; -0.376 z-score in experiment [3]; -0.377 z-score with C10orf35 (human); -0.379 z-score with C10orf46 (human); -0.374 z-score with C10orf58. For the same sequence, the binding signal with C11orf51 (human) was -0.393 z-score; with C11orf52, 6 z-score; with C11orf53 (human) it was -0.386 z-score; in the experiment on C11orf70 (human) it was -0.365 z-score; in the experiment on C11orf74 (human) it was -0.396 z-score; with C12orf10 (human) it was -0.374 z-score. Moreover, the binding signal was -0.387 z-score with C12orf41 (human); -0.402 z-score in the experiment on C12orf48 (human); -0.363 z-score with C14orf100 (human); -0.41 z-score in the experiment on C14orf119 (human); -0.382 z-score in the experiment with C14orf122 (human); -0.392 z-score in the experiment on C14orf130 (human). For the same sequence, the binding signal was -0.4 z-score and -0.369 z-score in the experiment with C14orf131 (human); -0.371 z-score in the experiment with C14orf159 (human).
